In the supplement of paper PMC10849652:
The list shows a part of the results.

The chains behind the UniProt entries cited, without tags or fusion partners. Where a name states a change or a piece, a line headed by the entry shows the natural chain unless it says otherwise.
UniProt Q8N5G0: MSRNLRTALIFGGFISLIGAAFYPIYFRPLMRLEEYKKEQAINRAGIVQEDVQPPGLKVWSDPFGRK
UniProt Q96SB8: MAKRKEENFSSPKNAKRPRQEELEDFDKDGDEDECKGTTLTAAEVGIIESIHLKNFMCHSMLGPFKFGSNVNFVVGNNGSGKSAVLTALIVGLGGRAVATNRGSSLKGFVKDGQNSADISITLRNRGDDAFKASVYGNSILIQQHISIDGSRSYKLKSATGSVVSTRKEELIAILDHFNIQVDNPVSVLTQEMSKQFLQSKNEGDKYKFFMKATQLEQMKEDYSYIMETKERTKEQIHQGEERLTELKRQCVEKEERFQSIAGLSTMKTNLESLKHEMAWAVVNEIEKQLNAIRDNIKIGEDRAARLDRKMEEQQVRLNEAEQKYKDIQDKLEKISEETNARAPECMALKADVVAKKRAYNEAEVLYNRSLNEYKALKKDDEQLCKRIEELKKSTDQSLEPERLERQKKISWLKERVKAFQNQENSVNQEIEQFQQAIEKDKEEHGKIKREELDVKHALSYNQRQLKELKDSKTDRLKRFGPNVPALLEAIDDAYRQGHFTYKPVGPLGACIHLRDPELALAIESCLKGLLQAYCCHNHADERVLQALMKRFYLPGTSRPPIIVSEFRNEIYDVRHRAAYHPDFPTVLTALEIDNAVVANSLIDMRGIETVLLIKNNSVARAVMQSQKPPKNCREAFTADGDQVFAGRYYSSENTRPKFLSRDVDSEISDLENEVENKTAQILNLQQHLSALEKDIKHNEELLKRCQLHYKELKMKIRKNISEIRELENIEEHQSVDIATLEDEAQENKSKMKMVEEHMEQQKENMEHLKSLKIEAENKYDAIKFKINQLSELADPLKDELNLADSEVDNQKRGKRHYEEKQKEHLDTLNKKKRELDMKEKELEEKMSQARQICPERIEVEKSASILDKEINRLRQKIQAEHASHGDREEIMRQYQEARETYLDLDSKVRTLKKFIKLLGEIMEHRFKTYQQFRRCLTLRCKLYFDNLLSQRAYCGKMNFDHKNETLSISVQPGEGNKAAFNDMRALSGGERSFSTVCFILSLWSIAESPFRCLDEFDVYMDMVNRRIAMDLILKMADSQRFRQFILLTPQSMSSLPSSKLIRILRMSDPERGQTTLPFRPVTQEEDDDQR
UniProt O75971: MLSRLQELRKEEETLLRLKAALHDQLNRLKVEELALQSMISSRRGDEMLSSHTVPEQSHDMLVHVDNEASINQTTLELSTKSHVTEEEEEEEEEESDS
UniProt Q96KF7: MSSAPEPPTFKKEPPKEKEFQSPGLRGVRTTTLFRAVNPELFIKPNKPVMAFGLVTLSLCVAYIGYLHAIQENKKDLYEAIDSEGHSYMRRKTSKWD
UniProt O14508, whole entry, looked up: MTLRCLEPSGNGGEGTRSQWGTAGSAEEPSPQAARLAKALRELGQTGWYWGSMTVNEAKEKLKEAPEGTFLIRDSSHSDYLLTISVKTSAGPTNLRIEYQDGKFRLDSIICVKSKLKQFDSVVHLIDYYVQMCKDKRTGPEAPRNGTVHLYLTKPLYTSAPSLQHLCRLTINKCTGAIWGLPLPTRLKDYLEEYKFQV
UniProt P04179: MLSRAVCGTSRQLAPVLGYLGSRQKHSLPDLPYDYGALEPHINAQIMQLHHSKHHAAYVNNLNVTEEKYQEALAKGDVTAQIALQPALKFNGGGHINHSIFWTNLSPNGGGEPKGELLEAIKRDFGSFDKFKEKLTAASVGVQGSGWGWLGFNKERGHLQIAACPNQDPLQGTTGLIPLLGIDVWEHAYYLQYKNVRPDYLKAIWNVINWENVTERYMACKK
UniProt Q8TEV9: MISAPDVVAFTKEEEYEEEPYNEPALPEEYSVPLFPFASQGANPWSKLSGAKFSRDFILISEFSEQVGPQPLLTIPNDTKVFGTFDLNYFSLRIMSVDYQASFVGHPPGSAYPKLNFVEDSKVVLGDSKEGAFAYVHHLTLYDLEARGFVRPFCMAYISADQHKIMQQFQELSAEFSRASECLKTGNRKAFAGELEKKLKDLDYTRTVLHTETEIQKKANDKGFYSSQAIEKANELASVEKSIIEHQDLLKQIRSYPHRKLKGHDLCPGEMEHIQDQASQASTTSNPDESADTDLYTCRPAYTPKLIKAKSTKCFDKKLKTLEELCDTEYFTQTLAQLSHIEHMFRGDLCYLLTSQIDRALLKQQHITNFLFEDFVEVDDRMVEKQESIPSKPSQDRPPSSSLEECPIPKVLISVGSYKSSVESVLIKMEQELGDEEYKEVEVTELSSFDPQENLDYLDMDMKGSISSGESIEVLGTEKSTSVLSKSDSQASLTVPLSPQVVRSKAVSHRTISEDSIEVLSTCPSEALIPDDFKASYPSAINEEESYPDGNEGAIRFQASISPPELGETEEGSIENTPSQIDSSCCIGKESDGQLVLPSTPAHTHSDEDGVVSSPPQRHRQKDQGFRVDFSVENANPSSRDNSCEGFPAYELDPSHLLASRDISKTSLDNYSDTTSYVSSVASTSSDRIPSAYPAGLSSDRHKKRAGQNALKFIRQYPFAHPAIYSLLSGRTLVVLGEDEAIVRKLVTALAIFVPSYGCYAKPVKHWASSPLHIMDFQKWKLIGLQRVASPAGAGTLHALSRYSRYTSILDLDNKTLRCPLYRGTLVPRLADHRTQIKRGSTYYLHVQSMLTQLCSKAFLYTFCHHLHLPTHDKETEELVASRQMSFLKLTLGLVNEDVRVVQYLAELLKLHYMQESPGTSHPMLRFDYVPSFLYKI
UniProt Q9NRH2: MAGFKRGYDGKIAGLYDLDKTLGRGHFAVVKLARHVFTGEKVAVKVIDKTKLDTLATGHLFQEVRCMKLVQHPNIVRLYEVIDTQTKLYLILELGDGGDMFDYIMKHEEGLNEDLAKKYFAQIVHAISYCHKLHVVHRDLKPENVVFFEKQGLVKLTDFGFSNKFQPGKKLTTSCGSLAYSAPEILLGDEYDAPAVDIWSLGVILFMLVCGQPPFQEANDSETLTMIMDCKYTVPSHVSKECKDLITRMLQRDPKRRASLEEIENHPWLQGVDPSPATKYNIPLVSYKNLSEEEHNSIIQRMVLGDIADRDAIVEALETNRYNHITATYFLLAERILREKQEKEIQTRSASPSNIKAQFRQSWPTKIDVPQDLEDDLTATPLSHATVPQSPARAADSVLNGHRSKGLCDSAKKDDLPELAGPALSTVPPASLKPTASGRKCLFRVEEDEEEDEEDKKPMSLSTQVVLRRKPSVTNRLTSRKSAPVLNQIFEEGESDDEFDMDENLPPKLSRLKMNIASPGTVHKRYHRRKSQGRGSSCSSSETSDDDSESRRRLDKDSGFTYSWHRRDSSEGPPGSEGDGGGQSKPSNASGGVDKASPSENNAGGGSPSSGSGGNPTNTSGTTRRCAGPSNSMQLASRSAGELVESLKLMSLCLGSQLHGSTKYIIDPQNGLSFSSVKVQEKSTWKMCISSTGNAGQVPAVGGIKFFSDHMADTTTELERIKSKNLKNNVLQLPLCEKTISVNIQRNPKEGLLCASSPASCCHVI
UniProt Q9Y5X3: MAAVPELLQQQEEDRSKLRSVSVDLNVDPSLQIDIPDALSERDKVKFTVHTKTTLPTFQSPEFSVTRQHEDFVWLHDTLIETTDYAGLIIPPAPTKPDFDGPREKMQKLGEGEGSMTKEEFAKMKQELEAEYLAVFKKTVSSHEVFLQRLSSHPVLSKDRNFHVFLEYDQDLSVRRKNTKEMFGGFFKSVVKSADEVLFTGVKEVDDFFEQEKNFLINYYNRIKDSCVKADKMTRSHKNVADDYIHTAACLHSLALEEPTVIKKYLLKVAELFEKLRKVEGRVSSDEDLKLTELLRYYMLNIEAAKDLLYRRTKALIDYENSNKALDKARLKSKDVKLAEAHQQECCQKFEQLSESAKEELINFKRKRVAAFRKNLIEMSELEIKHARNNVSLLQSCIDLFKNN

Tests used:
Experiment in all cases: log2 fold change, soluble protein after heating vs DMSO (PISA); higher = thermal stabilisation; K562 lysate, 10 uM; active = over 0.2 and 3.5 SD of the protein, either way, in both replicates (recomputed)
[1] = compound: NCC(=O)Nc1ccc(-n2nc(C(F)(F)F)cc2-c2ccc3c(ccc4ccccc43)c2)cc1
Summary of the method: (§1)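 K562 pellets were dounce-homogenised in PBS pH 7.4 with 1 mM MgCl2, and the crude extract at 1 mg/mL protein was treated with 10 μM compound for 30 min. Aliquots were heated for 3 min across 48°C-58°C, pooled, and brought to 0.5% NP-40 at 4°C; soluble protein was the supernatant after 21,000xg for 90 min. Soluble protein was quantified by TMTpro 16plex LC-MS/MS with channel sums equalised, and reported as log2 fold change in thermal stability against DMSO controls, with values from duplicates.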

vorinostat = compound: O=C(CCCCCCC(=O)Nc1ccccc1)NO [vorinostat]
Summary of the method: as §1

silmitasertib = compound: O=C(O)c1ccc2c(c1)nc(Nc1cccc(Cl)c1)c1ccncc12 [silmitasertib]
Summary of the method: as §1

[2] = compound: O=C1NC(=O)C(c2cnc3ccccn23)=C1c1cn2c3c(cc(F)cc13)CN(C(=O)N1CCCCC1)CC2
Summary of the method: as §1

entospletinib = compound: c1cn2cc(-c3ccc4cn[nH]c4c3)nc(Nc3ccc(N4CCOCC4)cc3)c2n1 [entospletinib]
Summary of the method: as §1

Measured: log2 fold change

SNRPD2 (UniProt K7EJB5)
active: vorinostat 0.493
inactive: [1] 0.119 | silmitasertib 0.056 | [2] -0.1 | entospletinib -0.004

SMIM20 isoform 2 (UniProt Q8N5G0)
inactive: [1] 0.001 | vorinostat -0.006 | silmitasertib -0.288 | [2] -0.057

SMC6 (UniProt Q96SB8)
inactive: [1] -0.006 | silmitasertib -0.022 | [2] 0.019 | entospletinib -0.013
active: vorinostat -0.245

SNAPC5 (UniProt O75971)
inactive: [1] -0.057

SMIM8 (UniProt Q96KF7)
inactive: [1] -0.007 | vorinostat 0.092 | silmitasertib -0.022 | [2] -0.029 | entospletinib -0.046

SOCS2 (UniProt O14508)
inactive: [1] 0.046 | vorinostat -0.027 | silmitasertib 0.041 | [2] -0.006 | entospletinib 0.008

SOD2 (UniProt P04179)
inactive: [1] 0.016 | vorinostat 0.16 | silmitasertib -0.023 | [2] 0.046 | entospletinib 0.003

SMCR8 (UniProt Q8TEV9)
inactive: [1] -0.076 | vorinostat 0.044 | silmitasertib 0.01 | [2] 0.012 | entospletinib -0.092

SNRK (UniProt Q9NRH2)
inactive: [1] -0.021 | vorinostat -0.133 | silmitasertib -0.095 | [2] -0.082 | entospletinib -0.015

SNX5 (UniProt Q9Y5X3)
inactive: [1] 0.016 | vorinostat -0.029 | silmitasertib 0.007 | [2] -0.055 | entospletinib 0.01
